Reference: the supplement of paper PMC4604168 (melanoma cell lines)
The list shows a part of the results. Many values rest on one well or one pass, so single values are uncertain.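 Cells were imaged in 1,536-well plates, and nuclei stained with an antibody against cleaved PARP were counted against all DNA-stained nuclei to give the apoptosis fraction. Screening doses were chosen to leave most cells alive, and resting and induced cleaved-PARP levels differ strongly between cell lines.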

Assays:
Assay in all cases: cleaved PARP positive nuclei fraction relative to DMSO control; melanoma cells; higher = more apoptosis
Conditions in all cases: library dose: low library concentration; 72 h
WM115 = tested on: WM115
WM1716 = tested on: WM1716
WM1745 = tested on: WM1745
WM3526 = tested on: WM3526
WM3619 = tested on: WM3619
WM451Lu = tested on: WM451Lu

| Compound | cleaved PARP positive nuclei fraction (WM115) | cleaved PARP positive nuclei fraction (WM1716) | cleaved PARP positive nuclei fraction (WM1745) | cleaved PARP positive nuclei fraction (WM3526) | cleaved PARP positive nuclei fraction (WM3619) | cleaved PARP positive nuclei fraction (WM451Lu) |
| --- | --- | --- | --- | --- | --- | --- |
| Cc1nc(Nc2ncc(C(=O)Nc3c(C)cccc3Cl)s2)cc(N2CCN(CCO)CC2)n1 [dasatanib] + O=C(Nc1cccc(Cl)c1)Nc1ncc(CCNc2ncnc3ccsc23)s1 [SNS314] (first compound 0.004 µM, partner dose 0.0008 µM) | 123% | 280% | 148% | 62.2% | 102% | 103% |
| O=C(CCCCCCC(=O)Nc1ccccc1)NO [vorinostat] + COc1ccc(-c2ccc3c(N4CCOCC4)nc(N4C[C@@H](C)O[C@@H](C)C4)nc3n2)cc1CO [KU0063794] (first compound 0.08 µM, partner dose 0.02 µM) | 148% | 53.7% | 109% | 52.6% | 86.1% | 59% |
| Nc1cccc2c1CN(C1CCC(=O)NC1=O)C2=O (stereo not drawn) [lenalidomide] + Cn1cncc1[C@@](N)(c1ccc(Cl)cc1)c1ccc2c(c1)c(-c1cccc(Cl)c1)cc(=O)n2C [tipifarnib] (first compound 1 µM, partner dose 0.01 µM) | 73.1% | 181% | 216% | 74.7% | 109% | 169% |
| COCC[n+]1c2c(n(Cc3cnccn3)c1C)C(=O)c1ccccc1C2=O + COc1ccc(-c2ccc3c(N4CCOCC4)nc(N4C[C@@H](C)O[C@@H](C)C4)nc3n2)cc1CO [KU0063794] (first compound 0.0004 µM, partner dose 0.02 µM) | 40.1% | 72.2% | 112% | 190% | 72.3% | 84% |
| CC(C)(C)c1cnc(CSc2cnc(NC(=O)C3CCNCC3)s2)o1 + NC(=O)Nc1cc(-c2cccc(F)c2)sc1C(=O)N[C@H]1CCCNC1 [AZD7762] (first compound 0.01 µM, partner dose 0.02 µM) | 301% | 131% | 104% | 63.1% | 155% | 158% |
| O=C(CCCCCCC(=O)Nc1ccccc1)NO [vorinostat] + CCc1ccc(CCOc2ccc(CC3SC(=O)NC3=O)cc2)nc1 [pioglitazone] (first compound 0.08 µM, partner dose 2 µM) | 66.3% | 68.5% | 95.3% | 70.3% | 94.8% | 33.8% |
| C[C@@H]1CCN(C(=O)CC#N)C[C@@H]1N(C)c1ncnc2[nH]ccc12 + CN(C)S(=O)(=O)c1ccc2c(c1)/C(=C/c1cc3c([nH]1)CCCC3)C(=O)N2 [SU6656] (first compound 1 µM, partner dose 0.4 µM) | 262% | 933% | 105% | 207% | 81.1% | 62.2% |
| COc1cc(Nc2ncc(F)c(Nc3ccc4c(n3)NC(=O)C(C)(C)O4)n2)cc(OC)c1OC [Tamatinib] + COc1cc(N2CCC(N3CCN(C)CC3)CC2)ccc1Nc1ncc(Cl)c(Nc2ccccc2S(=O)(=O)C(C)C)n1 [NVP-TAE684] (first compound 0.4 µM, partner dose 0.08 µM) | 181% | 101% | 173% | 94% | 120% | 76.3% |
| CC(=O)c1c(C)c2cnc(Nc3ccc(N4CCNCC4)cn3)nc2n(C2CCCC2)c1=O [palbociclib] + CC1(C)NC(=O)N(c2ccc([N+](=O)[O-])c(C(F)(F)F)c2)C1=O [nilutamide] (first compound 0.04 µM, partner dose 1 µM) | 191% | 65.2% | 168% | 373% | 189% | 223% |
| O=C(CCCCCCC(=O)Nc1ccccc1)NO [vorinostat] + O=C(O)c1ccc(-c2c[nH]c3ncc(-c4ccccc4)cc23)cc1C1CCCC1 [GSK650394] (first compound 0.08 µM, partner dose 0.16 µM) | 65.9% | 99% | 80.9% | 68.2% | 87% | 160% |
| C=CCNC1=C2C[C@@H](C)C[C@H](OC)[C@H](O)[C@@H](C)/C=C(\C)[C@H](OC(N)=O)[C@@H](OC)/C=C\C=C(/C)C(=O)NC(=CC1=O)C2=O [Tanespimycin] + CC(C)CCN1c2nc(Nc3cc(F)c(O)c(F)c3)ncc2N(C)C(=O)C1C [BID1870] (first compound 0.002 µM, partner dose 0.2 µM) | 133% | 404% | 91.1% | 87.9% | 122% | 146% |
| COCC[n+]1c2c(n(Cc3cnccn3)c1C)C(=O)c1ccccc1C2=O + Cc1ccc(NC(=O)c2cccc(N(C)C)c2)cc1NC(=O)c1ccc(O)cc1 [ZM336372] (first compound 0.0004 µM, partner dose 2 µM) | 27.3% | 60.1% | 99.6% | 67.4% | 83.8% | 58% |
| C#Cc1cccc(Nc2ncnc3cc(OCCOC)c(OCCOC)cc23)c1 [erlotinib] + COc1cc(N2CCC(N3CCN(C)CC3)CC2)ccc1Nc1ncc(Cl)c(Nc2ccccc2S(=O)(=O)C(C)C)n1 [NVP-TAE684] (first compound 0.8 µM, partner dose 0.08 µM) | 50.1% | 64.8% | 139% | 91.7% | 80.4% | 131% |

Taken from the listing for reference:

| Compound | cleaved PARP positive nuclei fraction (WM115) | cleaved PARP positive nuclei fraction (WM1716) | cleaved PARP positive nuclei fraction (WM1745) | cleaved PARP positive nuclei fraction (WM3526) | cleaved PARP positive nuclei fraction (WM3619) | cleaved PARP positive nuclei fraction (WM451Lu) |
| --- | --- | --- | --- | --- | --- | --- |
| C=CCNC1=C2C[C@@H](C)C[C@H](OC)[C@H](O)[C@@H](C)/C=C(\C)[C@H](OC(N)=O)[C@@H](OC)/C=C\C=C(/C)C(=O)NC(=CC1=O)C2=O [Tanespimycin] + CC(C)CCN1c2nc(Nc3cc(F)c(O)c(F)c3)ncc2N(C)C(=O)C1C [BID1870] (first compound 0.002 µM, partner dose 0.2 µM) | 133% | 404% | 91.1% | 87.9% | 122% | 146% |
| COCC[n+]1c2c(n(Cc3cnccn3)c1C)C(=O)c1ccccc1C2=O + Cc1ccc(NC(=O)c2cccc(N(C)C)c2)cc1NC(=O)c1ccc(O)cc1 [ZM336372] (first compound 0.0004 µM, partner dose 2 µM) | 27.3% | 60.1% | 99.6% | 67.4% | 83.8% | 58% |
